## Results of single-concentration screens

Amino acid sequences for entries named in this document (tags omitted).
UniProt P9WPC5, whole entry: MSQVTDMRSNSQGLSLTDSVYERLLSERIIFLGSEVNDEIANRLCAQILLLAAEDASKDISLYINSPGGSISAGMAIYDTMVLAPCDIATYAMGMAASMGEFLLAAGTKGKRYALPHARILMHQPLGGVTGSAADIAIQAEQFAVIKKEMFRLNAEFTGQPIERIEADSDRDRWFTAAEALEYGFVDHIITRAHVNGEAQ
UniProt P9WPC3, whole entry partner: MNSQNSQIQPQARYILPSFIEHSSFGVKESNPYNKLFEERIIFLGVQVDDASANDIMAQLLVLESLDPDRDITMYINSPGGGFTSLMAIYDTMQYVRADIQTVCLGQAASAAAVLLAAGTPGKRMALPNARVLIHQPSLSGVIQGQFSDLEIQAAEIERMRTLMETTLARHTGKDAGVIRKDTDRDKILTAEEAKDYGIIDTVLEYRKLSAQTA

The values are deposited in ChEMBL (CHEMBL3988442, “University of Dundee, Small-Polar-MMV Screening Library” (2021)).

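Protease assay of ClpP1P2, read by the AMC dye that it sets free. Target: ClpP1P2, Mycobacterium tuberculosis (UniProt P9WPC5 and UniProt P9WPC3). Compounds at 50 µM. Direction is inferred from only a few compounds that gave an IC50; most scored high, so higher reads as stronger inhibition. Most other retested compounds had strongly negative values. Size under these conditions: about 69,000 compounds, about 10 of them at 50% or above in at least one test.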

Each number is a percent effect as filed. How 0% and 100% were set is not recorded. Most values in the screen are low, and negative values occur. The compounds are a random part of those screened.

CNC(=O)Nc1cc(-c2ccc(Br)cc2)nn1CCO gave -1.623%.
O=C1C[C@H]2CC[C@@H](CN1)N2c1cc(-c2ccccc2F)nc2ccnn12 gave -219.4%.
O=C(NCc1cccc(F)c1)NC1CCCN(c2ncccn2)C1 (centres unmarked) gave -3.436%.
O=C(CCc1ccsc1)N1CCCCC1Cn1cccn1 (centres unmarked) gave -46.55%.
CN(C)S(=O)(=O)N1CCCCC1CCc1ccc(O)cc1 (centres unmarked) gave -4.482%.
CC(=O)N1CCC(NC(=O)NCCCc2cn[nH]c2C)CC1 gave 5.153%.
O=S(=O)(C1CC1)N1Cc2[nH]nc(COCC3CC3)c2C1 gave 2.623%.
Cn1nc(C2CCCN(C(=O)Cc3ccsc3)C2)c2nccnc21 (centres unmarked) gave 7.376%.
CN(C(=O)c1ccc(NC(=O)c2cc[nH]n2)cc1)C1CCCCC1 gave -20.21%.
O=C(NCCCOC1CCOC1)NC(C1CC1)C1CC1 (centres unmarked) gave 0.008738%.
O=C(c1ccc[nH]1)N1CCCn2c(nnc2Cn2cccn2)C1 gave 3.351%.
COc1ccccc1NC(=O)NCc1cn[nH]c1 gave -6.237%.
CCOC(=O)c1cc(C(C)(O)CCC=C(C)C)on1 (centres unmarked) gave -0.13%.
O=C(NC1CCCOc2cc(Cl)ccc21)c1ccc(=O)[nH]n1 (centres unmarked) gave -9.471%.
Cc1nnc(C2Cc3ccccc3CN2Cc2ncc(C(C)(C)C)o2)o1 (centres unmarked) gave 19.92%.
COc1cc(C)cc(C(C(=O)O)N(C)CCN2CCCC2)c1OC (centres unmarked) gave 0.7791%.
CCc1nc2ccccc2n1C(CC)C(=O)N(C)Cc1nc(C)c[nH]1 (centres unmarked) gave 0.5235%.
COc1ccccc1S(=O)(=O)N1CCC2(CC1)[C@H](O)C[C@@H]2O gave -18.32%.
CS(=O)(=O)NCc1ncn2c1CN(C(=O)C1CCCCC1)CCC2 gave 3.891%.
O=C(C1CC1)N1CCC2(CC1)OCCO2 gave 8.919%.
Cc1nc(COc2nc(C(C)C)no2)cs1 gave -8.875%.
Cc1cc(NC(=O)CCN2CCCC2Cn2cncn2)no1 (centres unmarked) gave 8.145%.
COc1ccccc1N1CCN(Cc2ncc(C)c(OC)c2C)CC1=O gave -7.604%.
Cn1cnc2c(-c3ccccc3)nc(C3CCNCC3)cc21 gave 16.49%.
Cc1cccnc1CNCC1(O)CCCN(CC2CCCCC2)C1=O (centres unmarked) gave -11.93%.
COc1cccc(N2Cc3nc(=O)n(C(C)C)n3C2=O)c1 gave -10.69%.
CC(C)OCCN1CCN(C(=O)c2cccc(CC#N)c2)CC1 gave 7.14%.
O=C(CN(Cc1cccs1)c1ccc(F)cc1)NC1CCOCC1 gave -3.435%.
O=C(NCc1nnc2n1CCC2)c1ccc(C2CCCO2)s1 (centres unmarked) gave -10.92%.
O=C(c1ccc[nH]1)N1CCC(c2nccn2Cc2ccncc2)CC1 gave -9.535%.
Cc1nnc(N2C[C@@H]3CCCO[C@@H]3[C@H](N3CCCC3=O)C2)s1 gave -3.776%.
Cc1noc(C)c1CCC(=O)N1CCCC(n2cccn2)C1 (centres unmarked) gave -19.97%.
CC(C)c1cc(C(=O)N2CCCC3(CCNC3)C2)no1 (centres unmarked) gave -6.047%.
Cc1nc(C(C)NC(=O)NCc2nccn2CC(C)C)cs1 (centres unmarked) gave 0.2006%.

Once more, the final 4:

SMILES,percent effect
Cc1nnc(N2C[C@@H]3CCCO[C@@H]3[C@H](N3CCCC3=O)C2)s1,-3.776
Cc1noc(C)c1CCC(=O)N1CCCC(n2cccn2)C1 (centres unmarked),-19.97
CC(C)c1cc(C(=O)N2CCCC3(CCNC3)C2)no1 (centres unmarked),-6.047
Cc1nc(C(C)NC(=O)NCc2nccn2CC(C)C)cs1 (centres unmarked),0.2006